Reference: US20190054054A1, “Methods reducing or preventing oxidation of high density lipoprotein (HDL)” (Amarin Pharmaceuticals Ireland Limited, priority 2017, published 2019)
“Also recorded” adds a separate entry of the source. For at least one compound, name, drawing or mass did not settle the structure.

What was measured:
[1] = Membrane cholesterol domain peak intensity, x-ray diffraction of POPC/cholesterol membranes (Example 9); settings: 1.5:1 C/P mole ratio; for effect on cholesterol domains (in words): 1:30; for % change Vs control / Relative Cholesterol Domain Preak Intensity: drug-to-phospholipid mole ratio 1:30; for Relative Cholesterol Domain Preak Intensity: POPC and cholesterol
Procedure: The fatty acid stock solutions were stored at −20° C. until use. […] Samples were shell-dried under nitrogen gas and placed under vacuum for 3 hours to remove residual solvent at room temperature. After desiccation, each sample was resuspended in saline buffer (0.5 mM HEPES, 154 mM NaCl, pH 7.3) to yield a final phospholipid concentration of 2.5 mg/mL. Lipid suspensions were then vortexed for 3 minutes at ambient temperature to form MLVs. Membrane lipid vesicles were oriented for x-ray diffraction analysis as described by others (e.g., Herbette et al., Biophys. […] Briefly, a 100 μL aliquot of each MLV preparation (containing 250 μg MLV) was transferred to a Lucite® sedimentation cell fitted with an aluminum foil substrate designed to collect MLVs into a single membrane pellet upon centrifugation. […] After centrifugal orientation, sample supernatants were aspirated and aluminum foil substrates, each supporting a single membrane pellet, were removed from the sedimentation cells. Sample pellets were dried for 5-10 minutes at ambient conditions, mounted onto curved glass supports, and placed in hermetically-sealed, brass or glass containers (for immediate analysis or temporary storage, respectively). All x-ray diffraction experiments were conducted at 20° C., 74% relative humidity. The latter was established by exposing membrane samples to saturated solutions of L-(+)-tartaric acid (K2C4H4O6.½H2O) for at least 1 hour prior to experimental analysis. Oriented membrane samples were aligned at grazing incidence with respect to a collimated, mono-chromatic CuKα x-ray beam (Kα1 and Kα2 unresolved; λ=1.54 Å) produced by a Rigaku Rotaflex RU-200, high-brilliance microfocus generator (Rigaku-MSC, The Woodlands, Tex.) as previously described (Mason et al., Biophys. J., vol. 55(4), pages 769-778 (1989)). The samples were initially subjected to x-ray diffraction analysis at least 12 hours after formation of the membrane pellets and retested for up to several days. Analytical x-rays were generated by electron bombardment of a rotating copper anode and are filtered through a thin nickel foil to provide monochromatic radiation (λ=1.54 Å). Collimation of the x-ray beam was achieved using a single Franks mirror. Diffraction data were collected on a one-dimensional, position-sensitive electron detector (Hecus X-ray Systems, Graz, Austria) at a sample-to-detector distance of 150 mm from the sample site. The d-space for any given membrane multi bilayer is a measurement of the unit cell periodicity of the membrane lipid bilayer (e.g., the distance from the center of one lipid bilayer to the next including surface hydration), and is calculated from Bragg's Law, h λ=2 d sin θ, where h is the diffraction order, λ is the wavelength of the x-ray radiation (1.54 Å), d is the membrane lipid bilayer unit cell periodicity, and θ is the Bragg angle equal to one-half the angle between the incident beam and scattered beam. […] Routines written in Origin 8.6 (OriginLab Corporation, Northampton, Mass.) were used to determine total peak area (associated with all diffraction peaks in a given pattern) against which the second-order cholesterol domain peak was normalized. The raw data collected in this study was normalized using internal. Data were presented as mean+S.E.M. for (N) separate samples or treatment groups. Differences between groups were analyzed using the two-tailed, Student's t-test (for comparisons between only two groups) or ANOVA followed by Dunnett or Student-Newman-Keuls multiple comparisons post-hoc analysis (for comparisons between three or more groups). Alpha error was set to 0.05 in this study.

human HDL = assay: Copper-induced oxidation of human HDL, TBARS/MDA (Example 14); type: biochemical
Procedure: LDL and sdLDL subfractions (0.6 mL each) were incubated with either 10 μL vehicle (ethanol) or 10 μL drug stock solution for 30 min to 1 hr at 37° C. Oxidation was initiated by the addition of 10 μM CuSO4. After 2 hr, 100 μL aliquots were removed from each subfraction and combined with 1.0 mL thiobarbituric acid (0.5%), 10 μL trichloroacetic acid (5%), 10 μL BHT (5 mg/mL in methanol), and 10 μL EDTA (5 mM). Sample aliquots were incubated at 100° C. for 20 min and then assayed for the formation of thiobarbituric acid-reactive substances (TBARS), which have a molar absorptivity (c) value of 1.56×10^5 M^−1 cm^−1 at 532 nm and are derived principally from the reaction of thiobarbituric acid with malondialdehyde (MDA), a reactive aldehyde produced by LDL oxidation. Sample TBARS concentrations were determined spectrophotometrically by measuring sample absorbances against a standard curve derived from the hydrolysis of 1,1,3,3-tetramethoxypropane.
A study was performed to test whether EPA, DHA or EPA/DHA have antioxidant effects on high density lipoprotein. HDL was isolated from human plasma by iodixanol gradient ultracentrifugation and adjusted to a final apolipoprotein (apoA1) concentration of 10 mg/mL. Isolated HDL was separated into test samples of 200 μg/mL […] (based on ApoA1), and incubated at 37° C. in the absence (vehicle) or presence of EPA and/or DHA; 5.0 or […] each. Samples were then subjected to copper-induced oxidation (10 μM CuSO4) and, at different time points up to 14 hours, aliquots were removed from each sample and formation of TBARS was determined as explained above in Example 6.

human LDL = assay: Copper-induced oxidation of unfractionated LDL, TBARS (Example 7); type: biochemical; settings: all agents at 10 μM; 1 hour (FIG. 25)
Procedure: (§1) An experiment to study the antioxidant effect of EPA in LDL and small dense […] performed. […] Fenofibrate, gemfibrozil, and niacin were purchased from Sigma-Aldrich. […] Vitamin E was also incubated with sample aliquots as a positive control.

human sdLDL = assay: Copper-induced sdLDL oxidation, TBARS (Example 7); type: biochemical; settings: all at 10 μM; 1 hour (FIG. 16)
Procedure: as §1

## CC/C=C\C/C=C\C/C=C\C/C=C\C/C=C\CCCCCC(=O)O [DPA, docosapentaenoic acid]
[1]
  effect on cholesterol domains (in words): did not reduce domains compared to EPA
  % change Vs control: −20.8 ± 12.2%
  Relative Cholesterol Domain Preak Intensity: 33.5 ± 2.7

## CC/C=C\C/C=C\C/C=C\C/C=C\C/C=C\C/C=C\CCC(=O)O [DHA, docosahexaenoic acid]
Human HDL; 5 μM
  persistence of antioxidant activity: lost all antioxidant activity by 4 h; also recorded: losing all activity by 4 hours
Human HDL; 5 μM, by approximately 2 hours
  reduction in MDA formation: 50%
Human HDL; 10 μM
  persistence of antioxidant benefit: antioxidant benefit was lost by 4 h
[1]
  effect on cholesterol domains (in words): did not reduce cholesterol domains
  % change Vs control: −11.1 ± 11.7%
  Relative Cholesterol Domain Preak Intensity: 37.6±2.4

## CC(C)OC(=O)C(C)(C)Oc1ccc(C(=O)c2ccc(Cl)cc2)cc1 [fenofibrate]
Human LDL
  effect on unfractionated LDL oxidation as compared to vehicle-treated controls: no significant effect on unfractionated LDL oxidation
Human sdLDL
  effect on sdLDL oxidation as compared to vehicle-treated controls: no significant effect on sdLDL oxidation
